Test results published in US20230276831A1, “Food/Beverage Article” (Kikkoman Corporation, priority 2020, published 2023).
The source gives many values for each of these; only a part stands here.

Tests used:
[1] = test system: Lactobacillus rennini DSM 20253; assay: Antimicrobial action of licoricidin in liquid seasoning (1), lactic acid bacteria A; assay type: cell-based; design: key: A: The bacterial count decreases to less than 10% of the bacterial count of the control group.; B: The bacterial count decreases to 10% or more and less than 50% of the bacterial count of the control group.; C: The bacterial count decreases to 50% or more and less than 100% of the bacterial count of control group.; D: The bacterial count is the same as the bacterial count of the control group; conditions: Soy sauce
Method: Commercially available whole soybean soy sauce (produced by Kikkoman Corporation) was electrodialyzed and then concentrated under reduced pressure to obtain soy sauce at a salt concentration of 0% (w/v) and an alcohol concentration of 0% (v/v). Then, salt and/or alcohol was added to the above-mentioned obtained soy sauce, and the mixture was heat-treated to produce soy sauces at salt concentrations and alcohol concentrations shown in the following Table 5. The pHs of the soy sauces were 4.9 to 5.0. […]
Licoricidin (produced by ChemFaces) was added to each of the liquid seasonings produced in the above-mentioned (1) to concentrations of 1 ppm, 5 ppm, 10 ppm, 25 ppm, and 50 ppm. Lactic acid bacteria described in the following Table 9 were then added to 10^6 to 10^7 cells/mL and cultured at 30° C. for 7 days. After the culture, the number of lactic acid bacteria was measured using the GAM agar medium “Nissui”. Liquid seasoning to which licoricidin was not added was used as a control group, and the antimicrobial activity was evaluated in comparison with the number of lactic acid bacteria in the control group. The evaluation was performed using the criterion shown below.
• A: The bacterial count decreases to less than 10% of the bacterial count of the control group. • B: The bacterial count decreases to 10% or more and less than 50% of the bacterial count of the control group. • C: The bacterial count decreases to 50% or more and less than 100% of the bacterial count of control group. • D: The bacterial count is the same as the bacterial count of the control group.

[2] = test system: Lactobacillus rennini (DSM 20253); assay: Antimicrobial action of oxygen-containing heterocyclic compounds in soy sauce (Test Example 6); assay type: cell-based; design: key: A: The bacterial count decreases to less than 10% of the bacterial count of the control group.; B: The bacterial count decreases to 10% or more and less than 50% of the bacterial count of the control group.; C: The bacterial count decreases to 50% or more and less than 100% of the bacterial count of control group.; D: The bacterial count is the same as the bacterial count of the control group; conditions: salt 4% (w/v), alcohol 5% (v/v), test substance 1 ppm
Method: Commercially available whole soybean soy sauce (produced by Kikkoman Corporation) was electrodialyzed and then concentrated under reduced pressure to produce soy sauce at a salt concentration of 0% (w/v) and an alcohol concentration of 0% (v/v). Then, salt and/or alcohol was added to the above-mentioned obtained soy sauce, and the mixture was then heat-treated to produce soy sauce at a salt concentration of 4% (w/v) and an alcohol concentration of 5% (v/v).
The test substance described in Table 20 was added to the above-mentioned produced soy sauce to concentrations of 1 to 100 ppm. […] After the culture, the number of lactic acid bacteria was measured using the GAM agar medium “Nissui”. Soy sauce to which licoricidin was not added was used as a control group, and the antimicrobial activity was evaluated in comparison with the number of lactic acid bacteria in the control group. […]
• A: The bacterial count decreases to less than 10% of the bacterial count of the control group. • B: The bacterial count decreases to 10% or more and less than 50% of the bacterial count of control group. • C: The bacterial count decreases to 50% or more and less than 100% of the bacterial count of the control group. • D: The bacterial count is the same as the bacterial count of the control group. • -: Not evaluated

For `COc1c(CC=C(C)C)c(O)cc2c1C[C@H](c1ccc(O)c(CC=C(C)C)c1O)CO2` [Licoricidin, 4-[(R)-7-hydroxy-5-methoxy-6-(3-methyl-2-butenyl)chroman-3-yl]-2-(3-methyl-2-butenyl)-1,3-benzenediol], the Antimicrobial activity ([1]; salt 4% (w/v), alcohol 0% (v/v), licoricidin 25 ppm) was “A (The bacterial count decreases to less than 10% of the bacterial count of the control group.)”, the Antimicrobial activity ([1]; salt 4% (w/v), alcohol 0% (v/v), licoricidin 50 ppm) was “A (The bacterial count decreases to less than 10% of the bacterial count of the control group.)” and the Antimicrobial activity ([1]; salt 4% (w/v), alcohol 5% (v/v), licoricidin 1 ppm) was “C (The bacterial count decreases to 50% or more and less than 100% of the bacterial count of control group.)”. The Antimicrobial activity ([1]; salt 4% (w/v), alcohol 5% (v/v), licoricidin 5 ppm) was “A (The bacterial count decreases to less than 10% of the bacterial count of the control group.)”, the Antimicrobial activity ([1]; salt 4% (w/v), alcohol 5% (v/v), licoricidin 10 ppm) was “A (The bacterial count decreases to less than 10% of the bacterial count of the control group.)” and the Antimicrobial activity ([1]; salt 4% (w/v), alcohol 5% (v/v), licoricidin 25 ppm) was “A (The bacterial count decreases to less than 10% of the bacterial count of the control group.)”. The Antimicrobial activity ([1]; salt 4% (w/v), alcohol 5% (v/v), licoricidin 50 ppm) was “A (The bacterial count decreases to less than 10% of the bacterial count of the control group.)”, the Antimicrobial activity ([1]; salt 4% (w/v), alcohol 10% (v/v), licoricidin 1 ppm) was “A (The bacterial count decreases to less than 10% of the bacterial count of the control group.)” and the Antimicrobial activity ([1]; salt 4% (w/v), alcohol 10% (v/v), licoricidin 5 ppm) was “A (The bacterial count decreases to less than 10% of the bacterial count of the control group.)”. For the same molecule, the Antimicrobial activity ([1]; salt 4% (w/v), alcohol 10% (v/v), licoricidin 10 ppm) was “A (The bacterial count decreases to less than 10% of the bacterial count of the control group.)”, the Antimicrobial activity ([1]; salt 4% (w/v), alcohol 10% (v/v), licoricidin 25 ppm) was “A (The bacterial count decreases to less than 10% of the bacterial count of the control group.)” and the Antimicrobial activity ([1]; salt 4% (w/v), alcohol 10% (v/v), licoricidin 50 ppm) was “A (The bacterial count decreases to less than 10% of the bacterial count of the control group.)”. For the same molecule, the Antimicrobial activity ([1]; salt 8% (w/v), alcohol 0% (v/v), licoricidin 1 ppm) was “C (The bacterial count decreases to 50% or more and less than 100% of the bacterial count of control group.)”, the Antimicrobial activity ([1]; salt 8% (w/v), alcohol 0% (v/v), licoricidin 5 ppm) was “A (The bacterial count decreases to less than 10% of the bacterial count of the control group.)” and the Antimicrobial activity ([1]; salt 8% (w/v), alcohol 0% (v/v), licoricidin 10 ppm) was “A (The bacterial count decreases to less than 10% of the bacterial count of the control group.)”. For the same molecule, the Antimicrobial activity ([1]; salt 8% (w/v), alcohol 0% (v/v), licoricidin 25 ppm) was “A (The bacterial count decreases to less than 10% of the bacterial count of the control group.)”, the Antimicrobial activity ([1]; salt 8% (w/v), alcohol 0% (v/v), licoricidin 50 ppm) was “A (The bacterial count decreases to less than 10% of the bacterial count of the control group.)” and the Antimicrobial activity ([1]; salt 8% (w/v), alcohol 5% (v/v), licoricidin 1 ppm) was “B (The bacterial count decreases to 10% or more and less than 50% of the bacterial count of the control group.)”. For the same molecule, the Antimicrobial activity ([1]; salt 8% (w/v), alcohol 5% (v/v), licoricidin 5 ppm) was “A (The bacterial count decreases to less than 10% of the bacterial count of the control group.)”, the Antimicrobial activity ([1]; salt 8% (w/v), alcohol 5% (v/v), licoricidin 10 ppm) was “A (The bacterial count decreases to less than 10% of the bacterial count of the control group.)” and the Antimicrobial activity ([1]; salt 8% (w/v), alcohol 5% (v/v), licoricidin 25 ppm) was “A (The bacterial count decreases to less than 10% of the bacterial count of the control group.)”. For the same molecule, the Antimicrobial activity ([1]; salt 8% (w/v), alcohol 5% (v/v), licoricidin 50 ppm) was “A (The bacterial count decreases to less than 10% of the bacterial count of the control group.)”, the Antimicrobial activity ([1]; salt 12% (w/v), alcohol 0% (v/v), licoricidin 1 ppm) was “D” and the Antimicrobial activity ([1]; salt 12% (w/v), alcohol 0% (v/v), licoricidin 5 ppm) was “A (The bacterial count decreases to less than 10% of the bacterial count of the control group.)”. The Antimicrobial activity ([1]; salt 12% (w/v), alcohol 0% (v/v), licoricidin 10 ppm) was “A (The bacterial count decreases to less than 10% of the bacterial count of the control group.)”, the Antimicrobial activity ([1]; salt 12% (w/v), alcohol 0% (v/v), licoricidin 25 ppm) was “A (The bacterial count decreases to less than 10% of the bacterial count of the control group.)” and the Antimicrobial activity ([1]; salt 12% (w/v), alcohol 0% (v/v), licoricidin 50 ppm) was “A (The bacterial count decreases to less than 10% of the bacterial count of the control group.)”. The Antimicrobial activity ([1]; salt 12% (w/v), alcohol 5% (v/v), licoricidin 1 ppm) was “A (The bacterial count decreases to less than 10% of the bacterial count of the control group.)”, the Antimicrobial activity ([1]; salt 12% (w/v), alcohol 5% (v/v), licoricidin 5 ppm) was “A (The bacterial count decreases to less than 10% of the bacterial count of the control group.)” and the Antimicrobial activity ([1]; salt 12% (w/v), alcohol 5% (v/v), licoricidin 10 ppm) was “A (The bacterial count decreases to less than 10% of the bacterial count of the control group.)”. For the same molecule, the Antimicrobial activity ([1]; salt 12% (w/v), alcohol 5% (v/v), licoricidin 25 ppm) was “A (The bacterial count decreases to less than 10% of the bacterial count of the control group.)”, the Antimicrobial activity ([1]; salt 12% (w/v), alcohol 5% (v/v), licoricidin 50 ppm) was “A (The bacterial count decreases to less than 10% of the bacterial count of the control group.)” and the Antimicrobial activity [2] was “D”.
